# Measured values: the supplement of paper PMC4635364
# Counter-ions that a name gives are not always drawn. This is one part of the list. This data set is noisy: repeats of one test often differ as much as different tests do.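 ReNCell VM, a human fetal ventral-midbrain neural progenitor line, was differentiated without mitogens. Blinded raters scored images stained for doublecortin (early neurons) or tyrosine hydroxylase (dopaminergic neurons) against untreated wells (0 = no change). Scores were averaged across repeats and both raters, and compounds averaging 2 or more were selected as hits for retesting.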
# Legend:
# ReNCell VM [1] = test: neuronal differentiation score (DCX+ cell fraction vs untreated, manual image score) (score (-3 to 3)); higher = more neuronal differentiation; settings: 2 uM, 2 weeks
# ReNCell VM [2] = test: dopaminergic neuron differentiation score (TH+ cell fraction vs untreated, manual image score) (score (0 to 3)); higher = more TH+ dopaminergic neuron differentiation; settings: 2 uM, 4 weeks, BDNF 10 ng/ml + GDNF 10 ng/ml
smiles,measurement,setting,value
Oc1cc(O)c2c(c1)O[C@H](c1cc(O)c(O)c(O)c1)[C@H](O)C2,neuronal differentiation score,ReNCell VM [1]; library: Spectrum,inactive: 0
same,dopaminergic neuron differentiation score,ReNCell VM [2]; library: Spectrum,inactive: 0
O=C(O)/C=C/c1ccc(O)c(O)c1 [Caffeic Acid],neuronal differentiation score,ReNCell VM [1]; library: LOPAC,inactive: 0
same,dopaminergic neuron differentiation score,ReNCell VM [2]; library: LOPAC,active: 3
NCCCS(=O)(=O)O [3-Amino-1-propanesulfonic acid sodium],neuronal differentiation score,ReNCell VM [1]; library: LOPAC,inactive: 0
same,dopaminergic neuron differentiation score,ReNCell VM [2]; library: LOPAC,inactive: 0
COc1ccc(C(Cl)=C(c2ccc(OC)cc2)c2ccc(OC)cc2)cc1 [Chlorotrianisene],neuronal differentiation score,ReNCell VM [1]; library: Prestwick,inactive: 0
same,dopaminergic neuron differentiation score,ReNCell VM [2]; library: Prestwick,inactive: 0
"O=C(O)c1cccc(C(=O)O)n1 [2,6-pyridinedicarboxylic acid]",neuronal differentiation score,ReNCell VM [1]; library: Natural,inactive: 1
same,dopaminergic neuron differentiation score,ReNCell VM [2]; library: Natural,inactive: 0
CCOC(=O)Nc1ccc2c(c1)N(C(=O)CCN1CCOCC1)c1ccccc1S2 [Moricizine hydrochloride],neuronal differentiation score,ReNCell VM [1]; library: Prestwick,inactive: 0
same,dopaminergic neuron differentiation score,ReNCell VM [2]; library: Prestwick,inactive: 0
O=C(O)c1cc(=O)c(O)c(C(=O)O)o1 [Meconic acid],neuronal differentiation score,ReNCell VM [1]; library: Phytochemical,inactive: 0
same,dopaminergic neuron differentiation score,ReNCell VM [2]; library: Phytochemical,inactive: 0
COc1c2c(cc3c1C(CC(=O)c1c(O)c(OC)c4occc4c1OC)[N+](C)(C)CC3)OCO2 (stereo not drawn),neuronal differentiation score,ReNCell VM [1]; library: Natural,inactive: 0
same,dopaminergic neuron differentiation score,ReNCell VM [2]; library: Natural,inactive: 0
CCCOc1ccc2[nH]c(NC(=O)OC)nc2c1 [Oxibendazol],neuronal differentiation score,ReNCell VM [1]; library: Prestwick,inactive: 0
same,dopaminergic neuron differentiation score,ReNCell VM [2]; library: Prestwick,inactive: 0
O=C(Nc1ccccc1)OCC(CN1CCCCC1)OC(=O)Nc1ccccc1 (stereo not drawn),neuronal differentiation score,ReNCell VM [1]; library: Spectrum,inactive: 0
same,dopaminergic neuron differentiation score,ReNCell VM [2]; library: Spectrum,inactive: 0
COc1ccc(C[C@H](N)C(=O)N[C@H]2[C@@H](O)[C@H](n3cnc4c(N(C)C)ncnc43)O[C@@H]2CO)cc1 [Puromycin dihydrochloride],neuronal differentiation score,ReNCell VM [1]; library: Phytochemical,inactive: 0
same,dopaminergic neuron differentiation score,ReNCell VM [2]; library: Phytochemical,inactive: 0
CC(=O)OCC(=O)[C@@]1(O)CC[C@H]2[C@@H]3CCC4=CC(=O)CC[C@]4(C)[C@H]3C(=O)C[C@@]21C [Cortisone 21-acetate],neuronal differentiation score,ReNCell VM [1]; library: LOPAC,inactive: 0
same,dopaminergic neuron differentiation score,ReNCell VM [2]; library: LOPAC,inactive: 0
Cc1nc2n(c(=O)c1CCN1CCC(c3noc4cc(F)ccc34)CC1)CCCC2O (stereo not drawn),neuronal differentiation score,ReNCell VM [1]; library: Spectrum,inactive: 0
same,dopaminergic neuron differentiation score,ReNCell VM [2]; library: Spectrum,inactive: 0
NC(N)=NCc1cccc(I)c1 [m-Iodobenzylguanidine hemisulfate],neuronal differentiation score,ReNCell VM [1]; library: LOPAC,inactive: 0
same,dopaminergic neuron differentiation score,ReNCell VM [2]; library: LOPAC,inactive: 0
CC(N)CCCC(C)(C)O (stereo not drawn) [Heptaminol hydrochloride],neuronal differentiation score,ReNCell VM [1]; library: Prestwick,inactive: 0
same,dopaminergic neuron differentiation score,ReNCell VM [2]; library: Prestwick,inactive: 0
COc1ccc2[nH]c(C(=O)c3ccccc3)cc2c1,neuronal differentiation score,ReNCell VM [1]; library: Tocriscreen,inactive: 0
same,dopaminergic neuron differentiation score,ReNCell VM [2]; library: Tocriscreen,inactive: 0
CN(C)c1nc(N(C)C)nc(N(C)C)n1,neuronal differentiation score,ReNCell VM [1]; library: Spectrum,inactive: -1
same,dopaminergic neuron differentiation score,ReNCell VM [2]; library: Spectrum,inactive: 0
CCOc1ccccc1C(N)=O,neuronal differentiation score,ReNCell VM [1]; library: Spectrum,inactive: 0
same,dopaminergic neuron differentiation score,ReNCell VM [2]; library: Spectrum,inactive: 1
CC[C@H]1OC(=O)C[C@@H](O)[C@H](C)[C@@H](O[C@@H]2O[C@H](C)[C@@H](O[C@H]3C[C@@](C)(O)[C@@H](O)[C@H](C)O3)[C@H](N(C)C)[C@H]2O)[C@@H](CC=O)C[C@@H](C)C(=O)/C=C/C(C)=C/[C@@H]1CO[C@@H]1O[C@H](C)[C@@H](O)[C@@H](OC)[C@H]1OC,neuronal differentiation score,ReNCell VM [1]; library: Spectrum,inactive: 0
same,dopaminergic neuron differentiation score,ReNCell VM [2]; library: Spectrum,inactive: 0
CCN(CCCCOC(=O)c1ccc(OC)c(OC)c1)C(C)Cc1ccc(OC)cc1 (stereo not drawn) [Mebeverine hydrochloride],neuronal differentiation score,ReNCell VM [1]; library: Prestwick,inactive: 0
same,dopaminergic neuron differentiation score,ReNCell VM [2]; library: Prestwick,inactive: 0
CC(=O)[C@@]1(O)CC[C@H]2[C@@H]3C=C(Cl)C4=CC(=O)[C@@H]5C[C@@H]5[C@]4(C)[C@H]3CC[C@@]21C,neuronal differentiation score,ReNCell VM [1]; library: Spectrum,inactive: 0
same,dopaminergic neuron differentiation score,ReNCell VM [2]; library: Spectrum,inactive: 0
Cc1ccsc1/C=C/C1=NCCCN1C [Morantel tartrate],neuronal differentiation score,ReNCell VM [1]; library: Prestwick,inactive: 0
same,dopaminergic neuron differentiation score,ReNCell VM [2]; library: Prestwick,inactive: 0
NCCS(=O)(=O)O,neuronal differentiation score,ReNCell VM [1]; library: Spectrum,inactive: 0
same,dopaminergic neuron differentiation score,ReNCell VM [2]; library: Spectrum,inactive: 0
OC(CCN1CCCCC1)(c1ccccc1)C1CCCCC1 (stereo not drawn) [Trihexyphenidyl hydrochloride],neuronal differentiation score,ReNCell VM [1]; library: LOPAC,inactive: 0
same,dopaminergic neuron differentiation score,ReNCell VM [2]; library: LOPAC,inactive: 0
C[C@@H]1NC(=O)NC1=O [Methylhydantoin-5-(L)],neuronal differentiation score,ReNCell VM [1]; library: Prestwick,inactive: 0
same,dopaminergic neuron differentiation score,ReNCell VM [2]; library: Prestwick,inactive: 0
CC(=O)O[C@H]1C(=O)[C@@]2(C)[C@H]([C@H](OC(=O)c3ccccc3)[C@]3(O)C[C@H](OC(=O)[C@H](O)[C@@H](NC(=O)c4ccccc4)c4ccccc4)C(C)=C1C3(C)C)[C@]1(OC(C)=O)CO[C@@H]1C[C@@H]2O [Paclitaxel],neuronal differentiation score,ReNCell VM [1]; library: Prestwick,inactive: 0
same,dopaminergic neuron differentiation score,ReNCell VM [2]; library: Prestwick,inactive: 0
"NC(=O)CNCCC(c1ccccc1)c1ccccc1 [N-(3,3-Diphenylpropyl)glycinamide]",neuronal differentiation score,ReNCell VM [1]; library: LOPAC,inactive: 0
same,dopaminergic neuron differentiation score,ReNCell VM [2]; library: LOPAC,inactive: 0
Cc1cccc(C)c1OCC(C)N (stereo not drawn) [Mexiletene hydrochloride],neuronal differentiation score,ReNCell VM [1]; library: LOPAC,inactive: 0
same,dopaminergic neuron differentiation score,ReNCell VM [2]; library: LOPAC,inactive: 0
CNC(=O)[C@H]1O[C@@H](n2cnc3c(NCc4ccc(N)cc4)ncnc32)[C@H](O)[C@@H]1O,neuronal differentiation score,ReNCell VM [1]; library: LOPAC,inactive: 0
same,dopaminergic neuron differentiation score,ReNCell VM [2]; library: LOPAC,inactive: 0

# Random excerpt: 4 records from the list
smiles,measurement,setting,value
CC(N)CCCC(C)(C)O (stereo not drawn) [Heptaminol hydrochloride],dopaminergic neuron differentiation score,ReNCell VM [2]; library: Prestwick,inactive: 0
Oc1cc(O)c2c(c1)O[C@H](c1cc(O)c(O)c(O)c1)[C@H](O)C2,dopaminergic neuron differentiation score,ReNCell VM [2]; library: Spectrum,inactive: 0
COc1ccc2[nH]c(C(=O)c3ccccc3)cc2c1,neuronal differentiation score,ReNCell VM [1]; library: Tocriscreen,inactive: 0
CN(C)c1nc(N(C)C)nc(N(C)C)n1,dopaminergic neuron differentiation score,ReNCell VM [2]; library: Spectrum,inactive: 0
